Test results reported in the supplement of paper PMC10331698.
± gives the standard deviation of the averaged measurements. Most values lie at the level of the controls, where differences are scatter.

How the values were obtained:
Test in all cases: level (log10 ratio to DMSO vehicle control); higher = higher biomarker level / cell amount than vehicle control
[1] = compound: O=C(Cl)C(F)(F)C(F)(F)C(F)(F)C(=O)Cl [Hexafluoroglutaryl chloride]; conditions: 2200 nM; in DMSO
Experimental: (§1)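 BioMAP Diversity Plus panel of 12 human primary cell co-culture systems (3C, 4H, LPS, SAg, BT, BF4T, BE3C, CASM3C, HDF3CGF, KF3CT, MyoF, Mphg). Compounds were added 1 h before stimulation and left for 24 h (MyoF 48 h; BT 72 h for soluble read-outs or 6 d for IgG). Biomarkers were read by ELISA, cytotoxicity by SRB, PBMC viability and proliferation by Alamar Blue. Each well value was divided by the mean of 8 DMSO control wells on the same plate and log10 transformed; duplicate blinded samples were tested at 4 concentrations.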

[2] = compound: O=C(O)C(F)(F)C(F)(F)C(F)(F)C(F)(F)C(F)(F)C(F)(F)C(F)(F)C(F)(F)C(F)(F)C(F)(F)C(F)(F)C(F)(F)C(F)(F)F [Perfluorotetradecanoic acid]; conditions: in DMSO
Experimental: as §1

[3] = compound: C=CC(=O)OCC(F)(F)C(F)(F)C(F)(F)COC(=O)C=C [1H,1H,5H,5H-Perfluoro-1,5-pentanediol diacrylate]; conditions: 2200 nM; in DMSO
Experimental: as §1

[4] = compound: C=CC(=O)OCCC(F)(F)C(F)(F)C(F)(F)C(F)(F)F [2-(Perfluorobutyl)ethyl acrylate]; conditions: 2200 nM; in DMSO
Experimental: as §1

[5] = compound: O=C(O)C=C(C(F)(F)F)C(F)(F)F [3,3-Bis(trifluoromethyl)-2-propenoic acid]; conditions: in DMSO
Experimental: as §1

Perfluoro-1-iodohexane = compound: FC(F)(F)C(F)(F)C(F)(F)C(F)(F)C(F)(F)C(F)(F)I [Perfluoro-1-iodohexane]; conditions: in DMSO
Experimental: as §1

[6] = compound: C=CC(=O)OCCC(F)(F)C(F)(F)C(F)(F)C(F)(F)C(F)(F)C(F)(F)C(F)(F)C(F)(F)F [8:2 Fluorotelomer acrylate]; conditions: 2200 nM; in DMSO
Experimental: as §1

[7] = compound: FC(F)(F)C(F)(C(F)(F)F)C(F)(F)C(F)(F)CC1CO1 [3-(Perfluoro-3-methylbutyl)-1,2-propenoxide]; conditions: in DMSO
Experimental: as §1

[8] = compound: O=S(=O)(O)C(F)(F)C(F)(F)C(F)(F)C(F)(F)C(F)(F)C(F)(F)F [Perfluorohexanesulfonic acid]; conditions: 2200 nM; in DMSO
Experimental: as §1

[9] = compound: FC(F)(I)C(F)(F)C(F)(F)C(F)(F)C(F)(F)C(F)(F)I [1,6-Diiodoperfluorohexane]; conditions: 2200 nM; in DMSO
Experimental: as §1

Hexafluoroamylene glycol = compound: OCC(F)(F)C(F)(F)C(F)(F)CO [Hexafluoroamylene glycol]; conditions: 2200 nM; in DMSO
Experimental: as §1

[10] = compound: OCCCC(F)(F)C(F)(F)C(F)(F)C(F)(F)C(F)(F)C(F)(F)C(F)(F)F [7:3 Fluorotelomer alcohol]; conditions: 2200 nM; in DMSO
Experimental: as §1

[11] = compound: O=S(=O)(O)CCC(F)(F)C(F)(F)C(F)(F)C(F)(F)F [4:2 Fluorotelomer sulfonic acid]; conditions: 2200 nM; in DMSO
Experimental: as §1

Test System	level (log10) [1]	level (log10) ([2]; 740 nM)	level (log10) ([2]; 2200 nM)	level (log10) [3]	level (log10) [4]	level (log10) ([5]; 2200 nM)	level (log10) ([5]; 6700 nM)	level (log10) ([5]; 20000 nM)	level (log10) ([5]; 60000 nM)	level (log10) (Perfluoro-1-iodohexane; 2200 nM)	level (log10) (Perfluoro-1-iodohexane; 6700 nM)	level (log10) (Perfluoro-1-iodohexane; 20000 nM)	level (log10) (Perfluoro-1-iodohexane; 60000 nM)	level (log10) [6]	level (log10) ([7]; 740 nM)	level (log10) ([7]; 2200 nM)	level (log10) [8]	level (log10) [9]	level (log10) (Hexafluoroamylene glycol)	level (log10) [10]	level (log10) [11]
3C:HLA-DR	0.001 ± 0.013	0.022 ± 0.0028	0.0075 ± 0.016	0.0025 ± 0.029	0.02 ± 0.017	0.0025 ± 0.011	-0.012 ± 0.014	-0.0415 ± 0.039	-0.189 ± 0.031	0.005 ± 0.014	0.0025 ± 0.0035	-0.011 ± 0.0057	-0.001 ± 0.017	0.015 ± 0.028	0.0135 ± 0.023	0.029 ± 0.0085	-0.018 ± 0.064	-0.006 ± 0.0071	-0.015 ± 0.016	0.0005 ± 0.005	-0.01 ± 0.021
BT:sTNF-alpha	0.133 ± 0.051	0.116 ± 0.093	0.127 ± 0.013	-0.306 ± 0.086	-0.0115 ± 0.018	0.0435 ± 0.096	-0.047 ± 0.034	-0.184 ± 0.04	-0.637 ± 0.093	0.065 ± 0.0099	0.009 ± 0.031	-0.0095 ± 0.14	-0.0015 ± 0.16	0.182 ± 0.058	0.056 ± 0.13	0.0755 ± 0.0092	0.114 ± 0.093	-0.061 ± 0.15	-0.006 ± 0.086	0.0265 ± 0.056	0.038 ± 0.067
MyoF:Collagen III	-0.015	-0.0055 ± 0.0021	-0.0005 ± 0.016	-0.017 ± 0.025	-0.008 ± 0.03	-0.019 ± 0.018	-0.021 ± 0.0014	-0.0335 ± 0.00071	-0.064 ± 0.011	0.0005 ± 0.011	-0.0225 ± 0.0064	-0.039 ± 0.0057	-0.132 ± 0.036	-0.001 ± 0.0099	-0.0185 ± 0.015	-0.001 ± 0.025	-0.0245 ± 0.013	-0.0495 ± 0.039	-0.0215 ± 0.026	-0.0015 ± 0.0021	-0.029 ± 0.0057
3C:CD62E/E-Selectin	-0.0035 ± 0.032	-0.0065 ± 0.0078	-0.013 ± 0.014	-0.065 ± 0.034	-0.024 ± 0.04	-0.0385 ± 0.015	-0.044 ± 0.0057	-0.081	-0.123 ± 0.026	0.013 ± 0.014	-0.0025 ± 0.00071	-0.0165 ± 0.0035	-0.0025 ± 0.029	0.0075 ± 0.04	-0.018 ± 0.018	-0.0015 ± 0.0021	-0.018 ± 0.037	0.0105 ± 0.011	-0.0035 ± 0.00071	0.002 ± 0.017	0.015 ± 0.0099
KF3CT:IL-1alpha	-0.0285 ± 0.005	-0.035	-0.011 ± 0.023	-0.038 ± 0.083	-0.006 ± 0.038	-0.0065 ± 0.0064	-0.001 ± 0.0057	-0.016 ± 0.016	-0.0185 ± 0.032	-0.0025 ± 0.046	0.008 ± 0.017	0.005 ± 0.017	-0.014 ± 0.017	-0.0035 ± 0.028	0.0095 ± 0.053	-0.013 ± 0.042	0.019 ± 0.057	-0.0085 ± 0.025	-0.018 ± 0.024	0.006 ± 0.0057	-0.0245 ± 0.028
BF4T:PAI-I	-0.003 ± 0.016	0.0175 ± 0.0021	0.0095 ± 0.00071	-0.007 ± 0.0071	0.0035 ± 0.035	0.0105 ± 0.013	0.0055 ± 0.0021	0.001 ± 0.0042	-0.0055 ± 0.021	-0.012 ± 0.021	-0.0095 ± 0.0035	-0.02 ± 0.0042	-0.006 ± 0.018	0.0085 ± 0.018	0.003 ± 0.018	0.004 ± 0.034	0.007 ± 0.028	0.016 ± 0.023	0.0035 ± 0.028	-0.0045 ± 0.0092	0.0045 ± 0.021
